Measurements: US6762284
Results are given in words; binding and its absence hold for the method and conditions named. Some entries that bind do so weakly or less than the wild type.

Sequences of proteins named here, by UniProt entry; tags and fusion partners are left off. A change or cut given only in a name is not applied to a line headed by its entry.
UniProt P04386: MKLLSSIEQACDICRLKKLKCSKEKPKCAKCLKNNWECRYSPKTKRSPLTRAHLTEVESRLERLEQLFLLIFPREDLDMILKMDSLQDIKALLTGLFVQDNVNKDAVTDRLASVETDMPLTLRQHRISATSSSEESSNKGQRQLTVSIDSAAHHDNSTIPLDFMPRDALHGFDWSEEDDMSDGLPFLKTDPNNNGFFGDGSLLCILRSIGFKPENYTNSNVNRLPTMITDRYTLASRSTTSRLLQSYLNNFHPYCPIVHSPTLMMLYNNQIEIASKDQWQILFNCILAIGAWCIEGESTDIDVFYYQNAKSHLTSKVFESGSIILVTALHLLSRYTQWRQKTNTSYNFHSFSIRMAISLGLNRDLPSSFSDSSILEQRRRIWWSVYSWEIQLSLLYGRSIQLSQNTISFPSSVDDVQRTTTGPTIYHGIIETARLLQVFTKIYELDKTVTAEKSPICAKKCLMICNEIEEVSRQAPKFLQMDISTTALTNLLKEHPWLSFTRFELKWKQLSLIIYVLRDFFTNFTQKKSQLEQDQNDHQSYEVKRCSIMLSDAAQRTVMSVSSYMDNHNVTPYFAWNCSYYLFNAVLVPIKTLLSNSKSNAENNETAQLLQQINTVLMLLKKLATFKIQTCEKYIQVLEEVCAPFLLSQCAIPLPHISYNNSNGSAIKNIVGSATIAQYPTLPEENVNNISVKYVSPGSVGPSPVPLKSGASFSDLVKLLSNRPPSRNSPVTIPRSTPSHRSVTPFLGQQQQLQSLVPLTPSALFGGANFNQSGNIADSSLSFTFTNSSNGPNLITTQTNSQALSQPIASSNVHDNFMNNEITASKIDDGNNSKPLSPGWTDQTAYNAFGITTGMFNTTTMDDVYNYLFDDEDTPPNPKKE
UniProt P27986: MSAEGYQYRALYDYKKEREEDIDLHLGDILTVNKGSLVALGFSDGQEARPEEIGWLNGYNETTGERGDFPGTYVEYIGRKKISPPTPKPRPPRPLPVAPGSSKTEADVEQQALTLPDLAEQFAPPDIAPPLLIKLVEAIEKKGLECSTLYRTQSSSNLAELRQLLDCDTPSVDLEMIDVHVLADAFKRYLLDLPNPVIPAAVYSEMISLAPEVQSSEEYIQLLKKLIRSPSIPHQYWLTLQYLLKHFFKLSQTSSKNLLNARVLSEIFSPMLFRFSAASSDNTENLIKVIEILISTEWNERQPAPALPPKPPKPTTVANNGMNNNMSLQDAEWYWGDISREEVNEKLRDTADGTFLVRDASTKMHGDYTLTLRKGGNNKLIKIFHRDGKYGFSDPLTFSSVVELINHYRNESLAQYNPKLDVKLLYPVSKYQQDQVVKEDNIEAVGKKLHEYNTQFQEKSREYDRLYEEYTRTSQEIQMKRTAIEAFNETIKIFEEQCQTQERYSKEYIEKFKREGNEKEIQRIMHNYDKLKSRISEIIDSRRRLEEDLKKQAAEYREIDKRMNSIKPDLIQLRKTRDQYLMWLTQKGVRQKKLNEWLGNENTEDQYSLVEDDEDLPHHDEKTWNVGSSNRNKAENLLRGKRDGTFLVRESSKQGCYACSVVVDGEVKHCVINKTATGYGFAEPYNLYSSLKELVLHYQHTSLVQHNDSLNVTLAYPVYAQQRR

Key:
Assay in all cases: yeast two-hybrid
[1] = biological target: p85 N-terminal SH2 and inter SH2 domain (AA 263-620) (human) (UniProt P04386+P27986)
[2] = biological target: p85 SH2 domains and inter SH2 domain (AA 263-727) (human) (UniProt P04386+P27986)
[3] = biological target: p85 full length (AA 6-727) (human) (UniProt P04386+P27986)

Measured: binding

B1: PIKAP AA 517-589 (protein, not shown: large carriers)
chain: DRLIALKAVTNFGVPVEVFDSEEAEIFQKKLDETTRLLRELQEAQNERLSTRPPGNMICLLGPSSEKCILLNK
binds: all assays above
